Binding data for 2 molecules are collected here from paper PMC5225165.

Test [1] deals with T1, inwardly rectifying K+ channel subtype Kir5.1 (mouse (endogenous in brain and optic nerve)) (UniProt Q9Z307).
T1 sequence: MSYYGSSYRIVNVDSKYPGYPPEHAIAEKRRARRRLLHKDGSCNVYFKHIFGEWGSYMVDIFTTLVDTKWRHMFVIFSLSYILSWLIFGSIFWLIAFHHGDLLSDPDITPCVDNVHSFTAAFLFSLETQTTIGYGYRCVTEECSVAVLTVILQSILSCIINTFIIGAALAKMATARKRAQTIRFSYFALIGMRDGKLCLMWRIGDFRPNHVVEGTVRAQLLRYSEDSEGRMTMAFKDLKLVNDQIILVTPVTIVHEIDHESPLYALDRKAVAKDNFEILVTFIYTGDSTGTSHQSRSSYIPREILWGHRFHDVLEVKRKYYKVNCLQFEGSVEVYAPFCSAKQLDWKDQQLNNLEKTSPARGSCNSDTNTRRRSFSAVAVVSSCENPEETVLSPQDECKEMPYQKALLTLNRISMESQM
In words: co-IP; total brain and optic nerve homogenates of adult wild type mice (P16-40); antibody overnight at 4 °C, Protein G MicroBeads (µMACS), washes in 150 mM NaCl, 1 % Triton X-100, 50 mM Tris HCl pH 8.0, then low-salt wash; western blot of the eluate; negative controls Kir4.1 knock-out tissue or antibody preabsorbed with blocking peptide.

Test [2] concerns the target T2, inwardly rectifying K+ channel subtype Kir4.1 (mouse (endogenous in brain and optic nerve)) (UniProt Q9JM63).
T2 sequence: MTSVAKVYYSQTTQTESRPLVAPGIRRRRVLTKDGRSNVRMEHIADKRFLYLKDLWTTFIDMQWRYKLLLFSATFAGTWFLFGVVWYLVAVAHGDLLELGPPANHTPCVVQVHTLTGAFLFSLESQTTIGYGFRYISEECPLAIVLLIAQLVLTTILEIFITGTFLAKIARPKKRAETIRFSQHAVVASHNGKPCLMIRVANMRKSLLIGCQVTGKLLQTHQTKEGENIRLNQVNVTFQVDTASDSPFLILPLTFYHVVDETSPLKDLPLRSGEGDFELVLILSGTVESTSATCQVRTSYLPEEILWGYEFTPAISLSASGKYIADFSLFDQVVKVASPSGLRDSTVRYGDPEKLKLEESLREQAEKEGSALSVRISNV
The description is as above.

No constants are given. Whether binding was seen depends on the method and setting. In cells and extracts the contact can be indirect. Some binding calls cover weakened binding; strength is not graded here.

B1: inwardly rectifying K+ channel subtype Kir4.1 (protein, UniProt Q9JM63 1-379)
chain: T2 sequence
For the molecule B1, in test [1], the binding result is on record as “binds”.

B2: inwardly rectifying K+ channel subtype Kir5.1 (protein, UniProt Q9Z307 1-419)
chain: T1 sequence
With B2, in test [2], the binding result is recorded as “binds”.
